Laboratory results as given in PubChem BioAssay AID652054 (National Center for Advancing Translational Sciences (NCATS), 2013).
The campaign covered roughly 360,000 compounds. About 9,100 (2.5%) were called active. Inconclusive means that the source gave no clear call. Such entries were picked first, then a sample of the others. No stated cut-off is given here; in the data, active means max response below about -50%; inconclusive means no clear call, values can overlap the other calls; inactive means above that. The source holds several records for some structures; these can differ, active in one and inactive in another.
On the % scale 0 is the no-effect control and ±100 the full control effect.

The chains behind the UniProt entries cited, without tags or fusion partners.
UniProt P35462, whole entry, looked up: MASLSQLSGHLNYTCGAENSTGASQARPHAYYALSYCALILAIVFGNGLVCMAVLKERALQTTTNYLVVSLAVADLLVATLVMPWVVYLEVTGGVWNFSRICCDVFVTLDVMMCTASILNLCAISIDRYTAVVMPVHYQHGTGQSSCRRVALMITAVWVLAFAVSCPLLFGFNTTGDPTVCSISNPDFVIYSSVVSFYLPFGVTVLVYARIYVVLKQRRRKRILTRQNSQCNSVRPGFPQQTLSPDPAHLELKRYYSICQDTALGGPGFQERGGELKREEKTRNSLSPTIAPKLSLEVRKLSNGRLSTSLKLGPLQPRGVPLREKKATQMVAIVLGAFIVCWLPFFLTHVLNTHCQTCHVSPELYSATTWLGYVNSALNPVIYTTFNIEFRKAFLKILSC

Each molecule was assayed against D(3) dopamine receptor (Homo sapiens) (UniProt P35462) (assay: qHTS of D3 Dopamine Receptor Antagonist: qHTS). Conditions: D3R cells, DiscoveRx beta-arrestin luminescence, antagonist mode; stronger effect = lower value.
Description: D3 DARs represent a very important target for the treatment of several neuropsychiatric disorders. Indeed, one of the most promising therapeutic applications for the D3 DAR is in the area of addiction and related disorders. […] These findings have been observed with a number of addictive substances including cocaine, amphetamine, nicotine, and alcohol. […] Antagonism of the D3 DAR may also be therapeutic in the treatment of schizophrenia or psychosis. […] Since the D3 DAR is expressed in areas of the CNS associated with the control of mood and emotion, it has been hypothesized that selective antagonism of the D3 DAR may be effective in treating psychosis without inducing the motor side effects typically seen with D2 DAR antagonists.
This part of the project aims to discover novel antagonist.
NIH Chemical Genomics Center [NCGC]
NIH Molecular Libraries Probe Centers Network [MLPCN]
Assay Submitter (PI): David Sibley, NINDS
Freshly passaged cells are plated in 1536 well white, solid bottom plates at a density of 1500 cells/well in 3microl of complete media. After an overnight incubation at 37 degrees C in 5% CO2, cells are loaded with 23nl of test compound from the compound library (as well as dopamine controls) using a 1536 pintool and incubated at 37 degrees C for 90 minutes. Two microliters of DiscoveRx reagent is then added to all cells, and they are incubated for an additional 30 - 60 minutes at room temperature. Following incubation, luminescence is measured on a ViewLux CCD-based luminometer reader using a 20 sec exposure time.
In the case of `O=C(Oc1ccccc1)c1ccc(COC(=O)c2cnccn2)cc1`, the max response, negative = inhibition is reported as active: -106%.
For `COCCn1cc(C(=O)NCCCN2CCC(C)CC2)c2c3ccccc3n(C)c2c1=O`, the max response, negative = inhibition was inconclusive: -35.3%.
For `CC(=O)NCC1CCCN(Cc2cn(-c3ccccc3)nc2-c2ccc3c(c2)OCO3)C1` (centres undefined), the max response, negative = inhibition was inactive: -10.1%.
With `O=[N+]([O-])c1ccc(S(=O)(=O)N2CCN(C3CCN(Cc4ccccc4)CC3)CC2)cc1` the max response, negative = inhibition was inconclusive: -35.5%.
`O=C1CCC(C(=O)N2CCCC(C(=O)c3ccc4c5c(cccc35)CC4)C2)=NN1` (centres undefined) was tested, and the max response, negative = inhibition was inactive: 5.43%.
`CC(C)(C)CC(C)(C)NCC(O)COc1c(F)cc(Br)cc1F` (centres undefined) was tested, and the max response, negative = inhibition was inconclusive: -42.8%.
For `CC/C(=C(\c1ccccc1)c1ccc(OCCN(C)C)cc1)c1ccccc1`, the max response, negative = inhibition was active: -72.8%.
In the case of `COc1ccc(-n2ncc3c(=O)n(CC(=O)OCc4ccccc4)cnc32)cc1`, the max response, negative = inhibition is reported as inconclusive: -37.9%.
In the case of `O=S(=O)(Nc1ccc2c(c1)OCO2)c1cccs1`, the max response, negative = inhibition is reported as inconclusive: -41.9%.
In the case of `Cc1ccc2c(c1)c1c3n2CCN=C3CCC1`, the max response, negative = inhibition is reported as inconclusive: -38.6%.
With `CNS(=O)(=O)c1cccc(C(=O)Nc2cccnc2)c1` the max response, negative = inhibition was active: -57.4%.
`CC(=O)N1CCN(S(=O)(=O)c2cccc(C(=O)NNC(=O)COc3ccc(Cl)cc3C)c2)CC1` was tested, and the max response, negative = inhibition was inconclusive: -47.5%.
For `CC(C)(C)OC(=O)N1CCNc2ccccc2C1`, the max response, negative = inhibition was inconclusive: -44.5%.
For `COc1ccc(N(CC(=O)N/N=C/c2ccco2)S(=O)(=O)c2ccccc2)cc1`, the max response, negative = inhibition was inconclusive: -32.1%.
`CCOc1cccc(OCCNC2CCCC2)c1` was tested, and the max response, negative = inhibition was inconclusive: -50%.
With `Cc1cc2oc(=O)cc(CNc3ccccc3F)c2cc1O` the max response, negative = inhibition was inconclusive: -40.8%.
In the case of `Cc1ccc2c(c1)[C@H]1[C@H](CO2)[C@H](c2ccccc2)[C@]2(C)C(=O)Nc3cc(F)ccc3C(=O)N12`, the max response, negative = inhibition is reported as inconclusive: -39.9%.
For `O=S(=O)(c1ccc(Br)cc1F)N1CCC(O)CC1`, the max response, negative = inhibition was inconclusive: -35.4%.
For `O=C(Nc1cccc(C(F)(F)F)c1)c1ccco1`, the max response, negative = inhibition was inconclusive: -38.5%.
For `CN(C)c1cccc(C(=O)OCc2cc(=O)oc3cc(O)ccc23)c1`, the max response, negative = inhibition was inactive: 1.56%.
For `CN(C)c1cccc(-c2nnc(SCCCC#N)o2)c1`, the max response, negative = inhibition was inconclusive: -34.6%.
With `O=C(CN(C(=O)C1CSC(=O)C1)c1cccc(F)c1)NC1CCCC1` (centres undefined) the max response, negative = inhibition was inconclusive: -34.4%.
`O=C(NCCCN1CCN(c2cccc(Cl)c2)CC1)C1(S(=O)(=O)c2ccc(Cl)cc2)CC1` was tested, and the max response, negative = inhibition was active: -56.5%.
In the case of `CCCCOc1ccc(-c2c(C#N)c(N)nc(SCC(N)=O)c2C#N)cc1`, the max response, negative = inhibition is reported as inconclusive: -41.3%.
